Test results from paper PMC11259706 (The Journal of Biological Chemistry, 2024).
No constants are given. Whether binding was seen depends on the method and setting. For some assays here: Binding seen in cells or lysates may run through a third protein. Some results given as binding are weak or reduced against the parent protein; the word gives no strength. For some assays here: Sequences can lack the tags named with a protein.

T1: cMyc-ELP1 (elongator acetyltransferase complex subunit 1) (UniProt O95163)
T1 sequence: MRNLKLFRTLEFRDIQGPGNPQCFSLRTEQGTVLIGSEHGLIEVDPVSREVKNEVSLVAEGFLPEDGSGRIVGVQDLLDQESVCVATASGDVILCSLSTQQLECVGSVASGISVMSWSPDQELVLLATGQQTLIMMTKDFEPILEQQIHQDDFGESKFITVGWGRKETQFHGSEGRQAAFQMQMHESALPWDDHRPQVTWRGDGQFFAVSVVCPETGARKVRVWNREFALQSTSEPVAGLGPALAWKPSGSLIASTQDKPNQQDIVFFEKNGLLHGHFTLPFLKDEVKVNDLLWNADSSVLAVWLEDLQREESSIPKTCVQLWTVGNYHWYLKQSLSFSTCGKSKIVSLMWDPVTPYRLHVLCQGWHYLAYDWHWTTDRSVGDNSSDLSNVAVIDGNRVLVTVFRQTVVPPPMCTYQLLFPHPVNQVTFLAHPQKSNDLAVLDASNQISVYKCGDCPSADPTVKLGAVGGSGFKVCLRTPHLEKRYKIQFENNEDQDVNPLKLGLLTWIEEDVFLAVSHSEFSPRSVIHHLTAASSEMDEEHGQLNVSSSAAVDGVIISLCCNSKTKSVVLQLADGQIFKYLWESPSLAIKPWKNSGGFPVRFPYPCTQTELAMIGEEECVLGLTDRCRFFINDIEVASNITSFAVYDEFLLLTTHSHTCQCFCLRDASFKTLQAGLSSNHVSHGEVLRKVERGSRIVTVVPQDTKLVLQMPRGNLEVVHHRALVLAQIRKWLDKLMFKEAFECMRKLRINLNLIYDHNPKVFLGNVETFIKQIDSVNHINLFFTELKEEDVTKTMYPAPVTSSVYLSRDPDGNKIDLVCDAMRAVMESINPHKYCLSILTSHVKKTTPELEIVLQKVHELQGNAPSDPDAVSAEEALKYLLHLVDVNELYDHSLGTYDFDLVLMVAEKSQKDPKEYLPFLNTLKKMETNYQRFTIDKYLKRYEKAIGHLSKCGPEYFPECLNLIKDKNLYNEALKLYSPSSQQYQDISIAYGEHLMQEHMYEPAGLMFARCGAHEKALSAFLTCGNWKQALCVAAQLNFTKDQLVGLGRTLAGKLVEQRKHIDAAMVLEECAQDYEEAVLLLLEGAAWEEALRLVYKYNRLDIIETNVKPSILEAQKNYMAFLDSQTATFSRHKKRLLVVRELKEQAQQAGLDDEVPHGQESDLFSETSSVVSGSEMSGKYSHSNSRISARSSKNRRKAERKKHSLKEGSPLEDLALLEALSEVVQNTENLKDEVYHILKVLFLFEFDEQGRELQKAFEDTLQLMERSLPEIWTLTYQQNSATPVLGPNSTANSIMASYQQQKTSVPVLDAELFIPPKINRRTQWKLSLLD

T2: protein phosphatase 5 (PP5), human, full-length (human) (UniProt P53041)
T2 sequence: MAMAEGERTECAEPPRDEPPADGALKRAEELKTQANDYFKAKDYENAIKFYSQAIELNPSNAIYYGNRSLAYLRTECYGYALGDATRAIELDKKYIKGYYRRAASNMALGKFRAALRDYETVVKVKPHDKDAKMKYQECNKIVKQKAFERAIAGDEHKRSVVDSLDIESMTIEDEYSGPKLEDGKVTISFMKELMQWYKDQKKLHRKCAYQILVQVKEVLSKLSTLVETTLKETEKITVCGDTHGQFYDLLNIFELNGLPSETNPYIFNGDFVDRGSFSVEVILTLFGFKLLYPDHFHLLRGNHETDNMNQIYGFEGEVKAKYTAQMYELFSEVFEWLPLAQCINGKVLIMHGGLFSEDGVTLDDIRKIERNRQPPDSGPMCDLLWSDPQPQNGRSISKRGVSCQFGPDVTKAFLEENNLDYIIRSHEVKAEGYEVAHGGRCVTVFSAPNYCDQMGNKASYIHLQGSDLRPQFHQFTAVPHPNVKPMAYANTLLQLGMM


Legend:
[1] = biological target: T1, cMyc-ELP1 (elongator acetyltransferase complex subunit 1); test: co-IP; HEK293T cells transfected with cMyc-ELP1 and FLAG-PP5; lysate (25 mM Tris-HCl pH 7.4, 150 mM NaCl, 1 mM EDTA, 1% NP-40, 5% glycerol) on anti-myc magnetic resin, RT 3 h; Western blots for FLAG, Hsp90 and Hsp70
[2] = biological target: T2, protein phosphatase 5 (PP5), human, full-length (human); test: fluorescence polarisation; saturation binding: tracer 20 nM, 3-fold dilution series of PP5; 50 mM Hepes, 75 mM NaCl, 0.001% Triton X-100, pH 7.4; room temperature, 15 min; both purified

Row | binding [1] | binding [2] | Molecule
1 | binds |  | FLAG-PP5 (from UniProt P53041 1-499) (enzyme)
2 |  | no binding (tested: > 100 μM) | WKPVD (fluorescent label (tracer)) [fluorescent tracer of the DDCP C-terminal sequence WKPVD]
